# Results from patent US20050288488A1, “Ah receptor cDNA and genetically engineered cells for detecting agonists to the Ah receptor” (Northwestern University, priority 1993, published 2005).
# Protein sequences, listed by entry. Tags and fused reporters are not part of them. Lines headed by an entry give the natural chain unless they say otherwise; changes in a name come on top. Chains listed by the source or under a name are the forms on record and can include a tag or linker.
# human Ah receptor nuclear translocator (ARNT) (P27540, form named): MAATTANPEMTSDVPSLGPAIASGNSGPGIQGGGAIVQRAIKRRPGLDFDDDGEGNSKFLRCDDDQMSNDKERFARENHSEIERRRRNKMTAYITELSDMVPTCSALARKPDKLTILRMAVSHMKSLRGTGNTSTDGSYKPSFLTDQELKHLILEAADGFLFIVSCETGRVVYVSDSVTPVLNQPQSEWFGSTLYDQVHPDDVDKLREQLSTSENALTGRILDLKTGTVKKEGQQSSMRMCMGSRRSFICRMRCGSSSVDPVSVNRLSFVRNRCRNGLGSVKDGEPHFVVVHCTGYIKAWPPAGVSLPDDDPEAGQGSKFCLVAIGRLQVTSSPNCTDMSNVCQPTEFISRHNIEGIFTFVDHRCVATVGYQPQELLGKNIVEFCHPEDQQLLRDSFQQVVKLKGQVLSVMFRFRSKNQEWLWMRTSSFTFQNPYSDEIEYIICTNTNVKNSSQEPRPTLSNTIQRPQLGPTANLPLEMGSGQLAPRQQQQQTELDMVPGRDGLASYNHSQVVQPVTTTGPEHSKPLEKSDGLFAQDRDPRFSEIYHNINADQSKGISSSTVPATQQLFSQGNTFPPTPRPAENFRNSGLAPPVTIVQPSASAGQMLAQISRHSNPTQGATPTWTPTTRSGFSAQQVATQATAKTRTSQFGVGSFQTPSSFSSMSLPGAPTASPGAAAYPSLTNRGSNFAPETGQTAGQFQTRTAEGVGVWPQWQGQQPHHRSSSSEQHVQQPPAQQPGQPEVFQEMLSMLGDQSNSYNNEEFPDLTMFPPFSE
# UniProt P35869: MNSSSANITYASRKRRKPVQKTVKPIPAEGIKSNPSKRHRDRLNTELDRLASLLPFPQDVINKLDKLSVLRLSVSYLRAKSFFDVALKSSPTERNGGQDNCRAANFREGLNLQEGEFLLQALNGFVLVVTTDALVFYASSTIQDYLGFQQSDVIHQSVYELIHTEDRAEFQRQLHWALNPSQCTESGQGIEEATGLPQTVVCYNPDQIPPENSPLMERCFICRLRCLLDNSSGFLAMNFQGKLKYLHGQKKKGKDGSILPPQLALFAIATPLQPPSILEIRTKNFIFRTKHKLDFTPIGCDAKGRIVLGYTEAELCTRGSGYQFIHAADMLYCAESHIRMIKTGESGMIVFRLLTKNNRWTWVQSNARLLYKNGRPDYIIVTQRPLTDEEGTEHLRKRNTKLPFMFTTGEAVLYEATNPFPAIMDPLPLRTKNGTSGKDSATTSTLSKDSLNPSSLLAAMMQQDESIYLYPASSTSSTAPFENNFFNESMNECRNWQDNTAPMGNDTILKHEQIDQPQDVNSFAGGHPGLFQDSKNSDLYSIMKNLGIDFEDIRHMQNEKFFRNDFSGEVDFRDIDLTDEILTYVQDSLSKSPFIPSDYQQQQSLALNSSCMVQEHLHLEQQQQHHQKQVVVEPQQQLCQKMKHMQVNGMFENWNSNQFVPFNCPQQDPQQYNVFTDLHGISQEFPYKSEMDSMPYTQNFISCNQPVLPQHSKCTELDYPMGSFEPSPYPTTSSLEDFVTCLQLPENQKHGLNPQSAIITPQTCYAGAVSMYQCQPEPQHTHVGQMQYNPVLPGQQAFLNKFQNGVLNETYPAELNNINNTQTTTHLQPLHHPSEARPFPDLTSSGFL
# UniProt Q8R4S5: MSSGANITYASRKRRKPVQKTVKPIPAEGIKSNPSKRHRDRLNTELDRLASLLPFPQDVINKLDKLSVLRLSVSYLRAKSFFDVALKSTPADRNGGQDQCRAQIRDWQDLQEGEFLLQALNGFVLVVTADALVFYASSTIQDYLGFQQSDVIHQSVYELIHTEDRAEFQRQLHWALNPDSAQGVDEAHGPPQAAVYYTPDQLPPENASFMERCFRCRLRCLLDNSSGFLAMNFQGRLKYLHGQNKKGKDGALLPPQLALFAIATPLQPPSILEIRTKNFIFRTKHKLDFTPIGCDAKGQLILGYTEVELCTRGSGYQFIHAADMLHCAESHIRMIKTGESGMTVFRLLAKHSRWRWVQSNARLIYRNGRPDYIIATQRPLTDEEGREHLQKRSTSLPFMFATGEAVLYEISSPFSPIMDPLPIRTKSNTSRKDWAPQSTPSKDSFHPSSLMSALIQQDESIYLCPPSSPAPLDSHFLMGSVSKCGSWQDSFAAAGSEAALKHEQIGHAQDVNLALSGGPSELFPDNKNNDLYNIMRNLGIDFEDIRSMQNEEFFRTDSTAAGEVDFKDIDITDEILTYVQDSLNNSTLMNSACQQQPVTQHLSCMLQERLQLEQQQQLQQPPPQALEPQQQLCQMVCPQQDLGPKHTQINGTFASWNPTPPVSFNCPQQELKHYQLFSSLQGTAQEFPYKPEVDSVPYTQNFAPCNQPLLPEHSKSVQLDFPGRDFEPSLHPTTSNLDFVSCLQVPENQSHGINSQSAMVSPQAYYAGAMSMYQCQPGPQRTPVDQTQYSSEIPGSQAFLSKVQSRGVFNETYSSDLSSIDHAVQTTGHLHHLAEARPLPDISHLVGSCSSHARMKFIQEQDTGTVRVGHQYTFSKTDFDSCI
# Results are given in words; binding and its absence hold for the method and conditions named. Some results given as binding are weak or reduced against the parent protein; the word gives no strength.
# Target: human Ah receptor nuclear translocator (ARNT) (human) (UniProt P27540)
# Test: gel shift assay with in vitro translated proteins and 32P-labeled DRE3 oligonucleotide
row,binding,Substance
1,binds,"human Ah receptor, full length (from phuAhR / pCWhuAHR) (from UniProt P35869 1-848)"
2,binds,"murine Ah receptor (Ah^b-1 allele), full length, in vitro translated from pmuAhR (from UniProt Q8R4S5 1-805)"
